Measurements reported in patent US12673054B2, “Substituted nucleoside analogs as PRMT5 inhibitors” (Lupin Limited, priority 2019, dated 2026).
Some entries share one result that the patent states for a list of compounds. Some ranges recur; such a range may be that of the whole group of compounds.

These compounds were tested on Z-138 cells (assay: Anticancer activity assay (cell viability, CellTiterGlo)). Conditions: cell line not given; range given with mixed units (pM to nM); read-out: IC50 (inhibition of cell viability), activity range.
Format: cell-based
Procedure: Z-138 cells were seeded at a density of 2000-3000 cells per well in culture media (IMDM+10% FBS). PANC-1 (ATCC, CRL-1469™) and MIA PaCa-2 (ATCC, CRL-1420™) cells were seeded at a density of 200-300 cells per well in culture media (DMEM+10% FBS). Cells were seeded in opaque, flat bottomed tissue culture grade 96-well plates and Z-138 cells (suspension) were seeded and treated on the same day with various concentrations of test compounds. PANC-1 and MIA PaCa-2 cells, being adherent, were kept for overnight settlement at standard cell culture conditions (37° C., 5% CO2). On the following day, cells were treated with various concentrations of test compounds. Cells were treated with test compounds for a period of 96 h, 7 days and 10 days, for Z-138 cells, PANC-1 cells and MIA PaCa-2 cells, respectively. Cell viability was assessed using CellTiterGlo™ (Promega, USA) as per manufacturer's instructions. Relative Light Units (RLU) were read in Synergy™ 2 reader (Biotek, USA). The assay measures cellular ATP as an indicator of cell viability. RLU is proportional to the number of viable cells in the respective well.
% inhibition of cell viability was calculated relative to the vehicle control samples containing media with 0.1% DMSO alone as per the formula below. (Avg. of Untreated Control−Avg. of Test)×100 • Avg. of Untreated control
The IC50 values of individual compounds were calculated with Non Linear Regression Analysis using Graph Pad Prism (Graph Pad software, Inc, USA).

Row | Structure (SMILES) | IC50
1 | Cc1nc(N)nc2c1ccn2[C@@H]1C=C(COc2cc(F)c3cc(Cl)c(N)nc3c2)[C@@H](O)[C@H]1O [Example 2, (1S,2R,5R)-3-(((2-Amino-3-chloro-5-fluoroquinolin-7-yl)oxy)methyl)-5-(2-amino-4-methyl-7H-pyrrolo[2,3-d]pyrimidin-7-yl)cyclopent-3-ene-1,2-diol] | 1 to 1000 pM
2 | Cc1nc(N)c2ccn([C@@H]3C=C(CCc4cc(F)c5cc(Cl)c(N)nc5c4)[C@@H](O)[C@H]3O)c2n1 [Example 7, (1S,2R,5R)-5-(4-Amino-2-methyl-7H-pyrrolo[2,3-d]pyrimidin-7-yl)-3-(2-(2-amino-3-chloro-5-fluoroquinolin-7-yl)ethyl)cyclopent-3-ene-1,2-diol] | 1 to 1000 pM
3 | Cc1nc(N)c2ccn([C@@H]3C=C(COc4cc(F)c5cc(Cl)c(N)nc5c4)[C@@H](O)[C@H]3O)c2n1 [Example 3, (1S,2R,5R)-5-(4-Amino-2-methyl-7H-pyrrolo[2,3-d]pyrimidin-7-yl)-3-(((2-amino-3-chloro-5-fluoroquinolin-7-yl)oxy)methyl)cyclopent-3-ene-1,2-diol] | 1 to 1000 pM
4 | Cc1nc(N)nc2c1ccn2[C@@H]1C=C(CCc2cc(F)c3cc(Cl)c(N)nc3c2)[C@@H](O)[C@H]1O [Example 1, (1S,2R,5R)-3-(2-(2-Amino-3-chloro-5-fluoroquinolin-7-yl)ethyl)-5-(2-amino-4-methyl-7H-pyrrolo[2,3-d]pyrimidin-7-yl)cyclopent-3-ene-1,2-diol] | 1 to 1000 pM
5 | Cc1nc(N)nc2c1cnn2[C@@H]1C=C(CCc2cc(F)c3cc(Cl)c(N)nc3c2)[C@@H](O)[C@H]1O [Example 4, (1S,2R,5R)-3-(2-(2-Amino-3-chloro-5-fluoroquinolin-7-yl)ethyl)-5-(6-amino-4-methyl-1H-pyrazolo[3,4-d]pyrimidin-1-yl)cyclopent-3-ene-1,2-diol] | 1 to 1000 pM
